Results on 62 compounds are retold here after PubChem BioAssay AID2685 (National Center for Advancing Translational Sciences (NCATS), 2010).

Usually AC50 stands for the concentration at which the activity in the assay is half-maximal. Low readings indicate greater potency, high ones weaker potency.

SMILES strings stand for the structures. This is one part of the list. These are further read-outs of the screen, such as a control signal, another cell line or another target. No call is given for them. Most of these compounds were active or inconclusive in the main read-out, so they are no random draw. The note in brackets gives the kind of curve behind each potency; many fits are weak.

A short description of the assay: qHTS Assay for Lipid Storage Modulators in Drosophila S3 Cells.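 As to cell number change: cells counted by Cell Tracker Red CMTPX staining in the red channel.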 The settings on record: BODIPY lipid droplet fluorescence, 18-24 h; for cell number change: measured here: cell count max response, cells fed with added oleic acid. The method, boiled down: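 Drosophila S3 cells got compounds at several concentrations plus oleic acid (400 uM solution). Laser-scanning cytometry with 488 nm excitation read lipid droplets at 500-530 nm and cells at 575-640 nm. Percent activity was relative to 20 uM Triacsin C.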
For orientation: In qHTS, concentration-response curves come from the screen itself.

Where [1] appears, read: measured here: lipid fluorescence (Fed channel) AC50, cells fed with added oleic acid.
Where [2] appears, read: measured here: cell number channel AC50, cells fed with added oleic acid.

For the compound `Cc1ccc(S(=O)(=O)NC2CCSC2=O)cc1C` (stereo not given), the cell number change was -18.3%. The AC50 under setting [1] is 0.0058 µM [falling, full curve, poor fit].

With `CNC(=O)c1cc(C(=O)c2ccc(C(F)(F)F)cc2F)c[nH]1`, the cell number change came out at 45.4%. Besides, the AC50 under setting [2] is 0.461 µM [rising, full curve, poor fit]. Moreover, under setting [1], the AC50 is 18.4 µM [rising, single point].

Consider `COc1cccc2sc(N(CCCN(C)C)C(=O)C(c3ccccc3)c3ccccc3)nc12`, for which the concentration at half-maximal activity (AC50) under setting [2] was 0.082 µM [falling, full curve, poor fit].

Regarding `COc1ccc(C(=O)Nc2c(N)nc(SCC(=O)NCC3CCCO3)[nH]c2=O)cc1` (stereo not given), the cell number change is -14.5%.

Turning to `CN1CCN(S(=O)(=O)c2cccc(C(=O)NC3CCCC3)c2)CC1`, the cell number change was -17%.

As for `CCCc1c(O)nc(SCCN(CCC)CCC)[nH]c1=O`, the cell number change was -2.17%.

Consider `CCC(=O)NC1CC2CCCC(C1)N2Cc1ccc(C)cc1` (stereo not given), for which the cell number change was found to be 3.15%. Besides, the AC50 under setting [1] was 0.58 µM [falling, single point].

Take `Cc1cccc2cc(C(c3nnnn3Cc3ccccc3)N3CCN(C)CC3)c(=O)[nH]c12` (stereo not given): the cell number change amounted to 1.99%. For the same compound, the AC50 under setting [1] is 29.1 µM [rising, single point].

As for `Cc1cccc(CC(=O)NC2CCN(C)CC2)c1`, the cell number change is -22%. The AC50 under setting [1] was 3.26 µM [falling, single point].

`Cc1c(CC(=O)NC(C)C)c(=O)oc2cc3c(cc12)CCC(C)(C)O3`: the cell number change was -8.62%.

Regarding `CC1CC(C)CN(C(=O)C(Cc2ccccc2)NC(=O)c2ccccc2)C1` (stereo not given), the cell number change is 21%. Further, the AC50 under setting [1] was 20.6 µM [rising, single point].

Regarding `Cc1ccc(-n2ncc3c2CCCC3NC(=O)c2ocnc2C)cc1C` (stereo not given), the cell number change was -39.6%. Moreover, the AC50 under setting [2] was 0.82 µM [falling, full curve]. In addition, the AC50 under setting [1] was 16.4 µM [falling, partial curve].

Regarding `COc1ccc(C(=O)N(Cc2ccco2)C(C(=O)NC2CCCC2)c2ccc(O)cc2)cc1OC` (stereo not given), the AC50 under setting [1] was 0.291 µM [rising, partial curve, poor fit].

On to `O=C(O)CCC(=O)Nc1nc(-c2ccccc2)cs1`, for which the cell number change is 8.28%. Moreover, under setting [1], the AC50 was 6.51 µM [falling, single point].

In the case of `COc1ccc(NC(=O)c2ccc(OCC3CCCO3)cc2)cc1Cl` (stereo not given), the cell number change is 43%. Further, the AC50 under setting [2] is 5.17 µM [rising, partial curve].

In the case of `Cc1nnc(NC(=O)c2ccc(-c3ccc(Cl)cc3)o2)s1`, the cell number change was found to be 13.4%.

As for `Cc1oc(-c2cc(F)ccc2F)nc1CN1CCN(c2cnccn2)CC1`, the cell number change was 0.894%. The AC50 under setting [2] was 3.66 µM [falling, partial curve]. Further, the AC50 under setting [1] was 2.06 µM [falling, partial curve].

With `CCN1CCN(S(=O)(=O)c2ccc(OC)c3ccccc23)CC1`, the cell number change is -3.16%. Besides, under setting [1], the AC50 is 0.092 µM [falling, full curve, poor fit].

Turning to `NC(=O)C1CCN(C(=O)c2ccc(NC3=NC4CS(=O)(=O)CC4S3)cc2)CC1` (stereo not given), the cell number change is -6.88%. Moreover, the AC50 under setting [1] was 0.206 µM [falling, full curve].

As for `Cc1snc2sc(C(=O)c3ccc(Br)cc3)c(N)c12`, the AC50 under setting [2] was 1.64 µM [rising, partial curve] and the AC50 under setting [1] is 3.26 µM [rising, partial curve].

`CC1CCN(c2ccc(NC(=O)c3ccccc3[N+](=O)[O-])cc2)CC1`: the cell number change was 127%. Besides, the AC50 under setting [2] is 25.9 µM [rising, partial curve]. Moreover, the AC50 under setting [1] was 29.1 µM [rising, single point].

As to `CCOC(=O)C1=C(CS(=O)(=O)c2ccccc2)NC(=O)NC1c1ccccc1` (stereo not given), the cell number change worked out at 0.646%. In addition, the AC50 under setting [1] was 8.2 µM [rising, partial curve].

Consider `Cc1ccc2c(c1)c(CC(=O)Nc1ccc(C)c(F)c1)c(C(=O)O)n2C`, for which the cell number change is -48.5%. The AC50 under setting [2] was 20.6 µM [falling, single point].

Turning to `Cc1cc(Br)ccc1NCc1ccccn1`, the cell number change was -34.2%. In addition, the AC50 under setting [2] is 14.6 µM [falling, partial curve].

Regarding `CCS(=O)(=O)c1nc(S(=O)(=O)c2ccc(C)cc2)c(NCCCN2CCOCC2)s1`, the cell number change was 31.7%. Further, under setting [2], the AC50 is 23.1 µM [rising, single point].

Take `CCOc1ccc(Cl)cc1S(=O)(=O)N1CCN(c2ccc(C)c(C)c2)CC1`: the AC50 under setting [2] is 2.06 µM [rising, single point].

Regarding `CC1(C)OC(=O)CC1C(=O)NCc1ccccc1` (stereo not given), the AC50 under setting [1] was 25.9 µM [falling, single point].

For `Cc1ccsc1C(=O)OCC(=O)NC1CCCC1`, the AC50 under setting [1] is 0.0058 µM [falling, full curve, poor fit].

Turning to `O=C(CCn1c(=O)c2ccccc2n(Cc2cccnc2)c1=O)NCc1ccc2c(c1)OCO2`, the cell number change is 9.69%. Further, the AC50 under setting [1] was 4.11 µM [rising, full curve].

As for `CCc1ccc2c(c1)cc(CN(Cc1ccco1)C(C)=O)c1nnnn12`, the cell number change was found to be 38.4%. Under setting [2], the AC50 was 32.6 µM [rising, single point].

Consider `Cc1ccc(-c2csc(NC(=O)CCNC(=O)c3ccccc3Cl)n2)cc1`, for which the cell number change was found to be 45.6%. The AC50 under setting [2] was 29.1 µM [rising, single point].

As for `Cc1cccc(C)c1NC(=O)CN1CCN(C(=O)CN2C(=O)NC3(CCCCC3C)C2=O)CC1` (stereo not given), the cell number change was -5.89%. Also, the AC50 under setting [1] was 0.092 µM [falling, full curve, poor fit].

For the compound `Cc1ccsc1/C=N/n1cnc2sc(C)c(C)c2c1=O`, the cell number change was -13.5%.

Turning to `CCOc1cc(C2C(C#N)=C(N)Oc3cc(N)ccc32)ccc1O` (stereo not given), the cell number change is -31.2%. The AC50 under setting [2] was 0.0731 µM [falling, full curve, poor fit].

Consider `CCc1nc2ccccc2c(C(=O)Oc2cccc3cccnc23)c1C`, for which the cell number change is -27.2%. For the same compound, the AC50 under setting [1] is 32.6 µM [falling, single point].

With `CC(C)(C)C(=O)Cn1c[n+](N)cn1`, the cell number change was -34.6%. Besides, the AC50 under setting [1] is 11.6 µM [falling, partial curve].

For `COc1c(/C=N/NC(=O)c2ccccc2O)c(CCN(C)C(C)=O)cc2c1OCO2`, the cell number change was -3.95%. Under setting [1], the AC50 is 0.13 µM [rising, full curve].

With `CCCCn1c(SCC(=O)O)nc2ccccc21`, the AC50 under setting [1] was 0.146 µM [rising, full curve, poor fit].

For `Nc1nc(SCC(=O)NCc2ccco2)[nH]c(=O)c1-c1ccccc1`, the cell number change was -4.72%. Under setting [1], the AC50 is 0.0231 µM [falling, full curve, poor fit].

Take `Cc1cc(N2CCOCC2)nc2ccc(NC(=O)CCC(=O)N3CCCCC3)cc12`: the cell number change was found to be 11.9%. The AC50 under setting [1] is 18.4 µM [rising, single point].

Take `COC(=O)N/N=C/c1ccc(OS(=O)(=O)c2ccc(C)cc2)c(OC)c1`: the cell number change amounted to 124%. In addition, under setting [2], the AC50 was 29.1 µM [rising, partial curve].

Turning to `O=C(COC(=O)c1ccco1)NCCc1ccc(Cl)cc1`, the cell number change was -0.389%. Also, under setting [1], the AC50 is 9.2 µM [rising, partial curve].

For the compound `CS(=O)(=O)N(CC(=O)NCCSCc1cccc(Cl)c1)c1ccccc1F`, the cell number change is -10.6%. Besides, the AC50 under setting [1] is 29.1 µM [falling, single point].

For `Cc1ccccc1C(=O)N1CCC(C(=O)Nc2ccc(C)c(S(=O)(=O)N3CCCCC3)c2)CC1`, the cell number change was -2.33%. Under setting [2], the AC50 is 0.731 µM [falling, single point]. The AC50 under setting [1] was 29.1 µM [falling, partial curve, poor fit].

As for `CCc1ccc(OCC(O)CN2CCC(CN3C(=O)c4cccc5cccc(c45)C3=O)CC2)cc1` (stereo not given), the cell number change amounted to 9.34%. In addition, the AC50 under setting [1] was 32.6 µM [rising, partial curve, poor fit].

As for `Cc1ccc(C2C(C#N)=C(N)Oc3cc(C)oc(=O)c32)o1` (stereo not given), the cell number change is -36.9%. Further, the AC50 under setting [2] is 29.1 µM [falling, single point]. Moreover, the AC50 under setting [1] was 29.1 µM [falling, single point].

As to `O=C(/C=C/c1ccc(N2CCC(c3ccccc3)=N2)cc1)c1ccccc1`, the cell number change was -33.7%. In addition, the AC50 under setting [2] was 18.4 µM [falling, single point]. The AC50 under setting [1] was 4.11 µM [falling, single point].

For the compound `C=CCN(CC=C)c1nc2ccccc2nc1C(C#N)C(=O)OCCOC` (stereo not given), the cell number change worked out at 5.64%.

As for `Cc1cc(C)n2nc(SC(C)C(=O)Nc3ccc(Cl)cn3)nc2n1` (stereo not given), the cell number change was determined as 13.1%. Moreover, the AC50 under setting [1] was 0.517 µM [rising, single point].

For the compound `O=C(Oc1cccc(Br)c1)c1cccnc1`, the cell number change is -15%. Moreover, the AC50 under setting [1] was 32.6 µM [rising, single point].

As for `Brc1ccc(C2=CC(c3cccs3)n3ncnc3N2)cc1` (stereo not given), the cell number change was -0.633%. Also, under setting [1], the AC50 was 29.1 µM [falling, single point].

Consider `CCOC(=O)c1sc(NC(=O)Cc2ccc(F)cc2)nc1C`, for which the cell number change was -33.8%. The AC50 under setting [2] is 16.4 µM [falling, partial curve]. The AC50 under setting [1] is 23.1 µM [falling, partial curve].

For the compound `NS(=O)(=O)c1ccc(CCNC(=O)CN2CCC(Cc3ccccc3)CC2)cc1`, under setting [2], the AC50 is 6.51 µM [falling, single point].

On to `COc1ccc(C2CC(c3cccs3)=NN2C(=O)CSc2nnnn2C)cc1OC` (stereo not given), for which the cell number change is 5.26%. For the same compound, the AC50 under setting [1] is 0.184 µM [rising, full curve].

Consider `CC1(C)Cc2cccc(OCC(=O)NCCc3ccc(S(N)(=O)=O)cc3)c2O1`, for which the cell number change worked out at 21.1%. In addition, the AC50 under setting [1] is 25.9 µM [rising, single point].

Regarding `CCC(COC(=O)Nc1cccc(C)c1C)NC(=O)OCC(C)C` (stereo not given), the cell number change is -4.88%. The AC50 under setting [1] is 0.366 µM [rising, full curve].

As for `Cc1c(C(=O)N(C)C2CCCCC2)sc2ncnc(N3CCN(c4ccccc4)CC3)c12`, the AC50 under setting [1] was 13 µM [falling, partial curve].

As to `O=C(CN1CCOc2ccccc21)NC1CCN(Cc2ccccc2)CC1`, the AC50 under setting [1] was 0.116 µM [falling, full curve].

Consider `Cc1nn2c(-c3ccncc3)nnc2c2ccccc12`, for which the AC50 under setting [1] was 0.82 µM [rising, partial curve].

`COCCOCCn1c(/C=C/c2ccccc2)nc2ccccc21`: the cell number change was found to be 15.6%. The AC50 under setting [1] was 0.58 µM [rising, single point].

On to `NNC(=S)NCCc1ccccc1`, for which the cell number change was -13.5%. Besides, under setting [2], the AC50 is 6.51 µM [falling, single point].

As for `Cc1cc(C)c2nc(NNC(=O)c3ccc(S(=O)(=O)N4CCCCC4)cc3)sc2c1`, the cell number change was -15.8%. Further, the AC50 under setting [1] was 1.03 µM [rising, partial curve].
